The values below come from patent US20100316570A1.

Chains of the proteins cited; added tags and fusions are not shown. Residues count along the entry.
UniProt P78324, residues 31-373: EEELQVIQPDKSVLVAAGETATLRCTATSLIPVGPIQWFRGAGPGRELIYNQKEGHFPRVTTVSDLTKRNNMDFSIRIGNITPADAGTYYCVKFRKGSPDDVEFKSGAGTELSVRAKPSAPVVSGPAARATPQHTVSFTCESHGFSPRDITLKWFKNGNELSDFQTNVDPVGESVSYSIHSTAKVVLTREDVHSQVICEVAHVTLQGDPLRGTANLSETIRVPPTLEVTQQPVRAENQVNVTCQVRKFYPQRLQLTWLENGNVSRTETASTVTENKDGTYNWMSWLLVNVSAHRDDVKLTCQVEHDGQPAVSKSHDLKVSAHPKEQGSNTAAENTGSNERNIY

These are yes or no findings as the source states them, for the method shown. Some binding calls cover weakened binding; strength is not graded here.

The target of test [1] is recombinant biotinylated human CD47 extracellular domain fused to CD4d3+4-biotin (human). The test can be described thus: flow cytometry, saturation binding on hCD47-coated beads. (In general: A flow cytometer gives signals particle by particle.)
For test [2] the target is unchanged. Put plainly: flow cytometry on hCD47-coated beads.

Take “soluble human SIRPα extracellular domain fused to GST (SIRPα1-GST) (from UniProt P78324 31-373) (receptor)”: the binding result in test [1] and in test [2] was “binds” each time.
